A short description of data set [1]: Side by side bleaching of Kraft pulp, hand sheet Kappa number, pH and ORP.
Data set [2] is described as follows: TOX formation test in pulp bleaching. The note with it: 50° C., 5% pulp consistency, 1.0% NaCl, 2 hour.

As for `CC(=O)OO` [PAA, peracetic acid], the “Final pH” value is given as 7.0 in data set [1] (4.0 g/L PAA equiv., initial pH 7.0, 30 min); 8.0 in data set [1] (4.0 g/L PAA equiv., initial pH 8.0, 30 min); 8.8 in data set [1] (4.0 g/L PAA equiv., initial pH 8.9, 30 min). The “sodium hydroxide needed to adjust pH” value in data set [1] (4.0 g/L peracetic acid solution up to pH 7.0) was determined as 10.9 g/L.
On to chlorine dioxide [ClO2], for which the “Normalized TOX” value in data set [2] is listed as 17.7 mg/L per 1000 mg/L oxidant. The TOX in data set [2] (4000 mg/L (peracetate, PAA) or 1000 mg/L (ClO2)) came out at 17.7 mg/L. Further, the “Final pH” value in data set [1] (1.13 g/L PAA equiv., initial pH 8.2, 30 min) is given as 6.4. For the same compound, the sodium hydroxide consumed entry in data set [1] (bleaching with 1.0 g/L chlorine dioxide at pH 8) is given as “about 1.5 g/L”.
